The text below walks through data of PMC12494878.

The assay concerns the target 1M3U self-assembling mutant (D157L/E158L/D161L) fused to YFP (UniProt P31057). In words: cryo-electron tomography of cells (with TEM and CLEM of cell sections); yeast cells expressing the YFP-tagged mutant; cryo-FIB milled lamellae, tilt series at 300 kV; fixed sections for TEM and CLEM.

No constants are given. Whether binding was seen depends on the method and setting. Some results given as binding are weak or reduced against the parent protein; the word gives no strength. Tags and fused reporters may be left off the sequences shown.

B1: 1M3U self-assembling mutant (D157L/E158L/D161L) fused to YFP (protein, UniProt P31057 1-264)
chain: MKPTTISLLQKYKQEKKRFATITAYDYSFAKLFADEGLNVMLVGDSLGMTVQGHDSTLPVTVADIAYHTAAVRRGAPNCLLLADLPFMAYATPEQAFENAATVMRAGANMVKIEGGEWLVETVQMLTERAVPVCGHLGLTPQSVNIFGGYKVQGRGLLAGLQLLSDALALEAAGAQLLVLECVPVELAKRITEALAIPVIGIGAGNVTDGQILVMHDAFGITGGHIPKFAKNFLAETGDIRAAVRQYMAEVESGVYPGEEHSFH
As for B1, the binding entry is listed as “binds”.
